# Laboratory results: patent US20250277050A1
# Protein sequences, listed by entry. Tags and fused reporters are not part of them. Residues count along the entry.
# UniProt P28908, residues 19-379: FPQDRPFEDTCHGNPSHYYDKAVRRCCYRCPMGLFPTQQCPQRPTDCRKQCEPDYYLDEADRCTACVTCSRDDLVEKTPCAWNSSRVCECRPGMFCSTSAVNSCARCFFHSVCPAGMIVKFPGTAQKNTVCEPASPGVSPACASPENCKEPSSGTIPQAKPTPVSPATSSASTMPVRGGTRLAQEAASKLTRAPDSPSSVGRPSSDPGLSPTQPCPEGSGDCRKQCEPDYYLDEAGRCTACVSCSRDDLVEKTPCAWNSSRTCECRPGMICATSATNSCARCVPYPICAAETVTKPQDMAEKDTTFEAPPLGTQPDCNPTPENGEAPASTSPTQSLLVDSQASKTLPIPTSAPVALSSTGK
# Results are given in words; binding and its absence hold for the method and conditions named. Some binding calls cover weakened binding; strength is not graded here.
# Target: recombinant CD30-GST fusion protein (human) (UniProt P28908)
# Test: ELISA, plate coated with recombinant CD30-GST fusion protein
row,Binder,binding
1,"8D10 (antibody, V domains shown) VH: QVQLQESGTELVKPGASVKLSCKASGYTFTSYWMHWMKQRPGQGLEWIGNINPSNGGTNYNEKFKNKATLTVDKSSSTAYMQLSSLTSEDSAVYYCARRDYYYGSSYGFDVWGTGTTVTVSS VL: DIVMTQSPASQSASLGESVTITCLASQTIGTWLAWYQQKPGKSPQFLIYAATSLADGVPSRFSGSGSGTKFSFKISSLQAEDFVSYYCQQLYSTPFTFGGGTKLEIK",binds
2,"12B1 (antibody, V domains shown) VH: EVKLEESGTELVKPGASVKLSCKASGYTFTSYWMHWVKQRPGQGLEWIGNINPTNGGTNYNEKFKSKATLTVDKSSRTAYMQLSSLTSGDSAVYYCARRDFITTSGFAYWGQGTLVTVSA VL: DIVMTQTTASLSTSVGETVTITCRASGNLHSYLTWYQQKQGKSPQLLVYNAKTLADGVPSRFSGSGSGTQYSLKIDSLQPEDFGSYYCQHFWTTPFTFGSGTKLEIK",binds

# Continued, values first:
row,binding,Binder
1,binds,"13H1 (antibody, V domains shown) VH: QVQLQQSGTELVKPGASVKLSCKASGHTFTSYWMHWVKQRPGQGLEWIGNINPSNGGTNYNEKFKSKATLTVDKSSSTAYMQLSSLTSEDSAVYYCARRGYYGSSSYWSFDVWGTGTTVTVSS VL: DIVMTQTPKSMSMSVGERVTLSCKASENVGTYVSWYQQKPEQSPKVLIYGASNRFTGVPDRFTGSGSATDFTLTISSVQTEDLADYHCGQSYSYPLTFGAGTKLELK"
2,binds,"15B8 (antibody, V domains shown) VH: QVQLEQSGTELVKPGASVKLSCKASGYTFTSYWMHWVKQRPGQGLEWIGNINPSNGGTNYNEKFKSKATLTVDKSSSTAYMQLSSLTSEDSAIYYCARRNNYYASSPFAYWGQGTLVSVSA VL: DIVMTQTPASLSASVGETVTITCRASGNIHNYLAWYQQKQGKSPQLLVYNAKTLADGVPSRFSGSGSGTQYSLKINSLQPEDFGSYYCQHFWSTPFTFGSGTKLEIK"
